Measurements as given in PubChem BioAssay AID2662 (National Center for Advancing Translational Sciences (NCATS), 2010).
About 110 (0.038%) of roughly 290,000 compounds were called active. This list was built around the results that the source calls inconclusive (neither active nor inactive); the mix of calls is not that of the screen. Calls come from the whole dose curve; as a rule, active = well fitted inhibition curve with a large enough effect in the polarisation, with a control signal flat (not every such curve was filed as active); inconclusive = small, poorly fitted or top-dose-only effect, or effect the other way, or a change in a side signal; inactive = no such curve, though single readings can be large or run the other way; the % refers to the polarisation. Where the call is inconclusive, the potency comes from a doubtful curve fit. “Side channel” marks fits to a control or component signal instead of the main read-out.

Amino acid sequences for entries named in this document (tags omitted).
UniProt Q03164, whole entry, looked up: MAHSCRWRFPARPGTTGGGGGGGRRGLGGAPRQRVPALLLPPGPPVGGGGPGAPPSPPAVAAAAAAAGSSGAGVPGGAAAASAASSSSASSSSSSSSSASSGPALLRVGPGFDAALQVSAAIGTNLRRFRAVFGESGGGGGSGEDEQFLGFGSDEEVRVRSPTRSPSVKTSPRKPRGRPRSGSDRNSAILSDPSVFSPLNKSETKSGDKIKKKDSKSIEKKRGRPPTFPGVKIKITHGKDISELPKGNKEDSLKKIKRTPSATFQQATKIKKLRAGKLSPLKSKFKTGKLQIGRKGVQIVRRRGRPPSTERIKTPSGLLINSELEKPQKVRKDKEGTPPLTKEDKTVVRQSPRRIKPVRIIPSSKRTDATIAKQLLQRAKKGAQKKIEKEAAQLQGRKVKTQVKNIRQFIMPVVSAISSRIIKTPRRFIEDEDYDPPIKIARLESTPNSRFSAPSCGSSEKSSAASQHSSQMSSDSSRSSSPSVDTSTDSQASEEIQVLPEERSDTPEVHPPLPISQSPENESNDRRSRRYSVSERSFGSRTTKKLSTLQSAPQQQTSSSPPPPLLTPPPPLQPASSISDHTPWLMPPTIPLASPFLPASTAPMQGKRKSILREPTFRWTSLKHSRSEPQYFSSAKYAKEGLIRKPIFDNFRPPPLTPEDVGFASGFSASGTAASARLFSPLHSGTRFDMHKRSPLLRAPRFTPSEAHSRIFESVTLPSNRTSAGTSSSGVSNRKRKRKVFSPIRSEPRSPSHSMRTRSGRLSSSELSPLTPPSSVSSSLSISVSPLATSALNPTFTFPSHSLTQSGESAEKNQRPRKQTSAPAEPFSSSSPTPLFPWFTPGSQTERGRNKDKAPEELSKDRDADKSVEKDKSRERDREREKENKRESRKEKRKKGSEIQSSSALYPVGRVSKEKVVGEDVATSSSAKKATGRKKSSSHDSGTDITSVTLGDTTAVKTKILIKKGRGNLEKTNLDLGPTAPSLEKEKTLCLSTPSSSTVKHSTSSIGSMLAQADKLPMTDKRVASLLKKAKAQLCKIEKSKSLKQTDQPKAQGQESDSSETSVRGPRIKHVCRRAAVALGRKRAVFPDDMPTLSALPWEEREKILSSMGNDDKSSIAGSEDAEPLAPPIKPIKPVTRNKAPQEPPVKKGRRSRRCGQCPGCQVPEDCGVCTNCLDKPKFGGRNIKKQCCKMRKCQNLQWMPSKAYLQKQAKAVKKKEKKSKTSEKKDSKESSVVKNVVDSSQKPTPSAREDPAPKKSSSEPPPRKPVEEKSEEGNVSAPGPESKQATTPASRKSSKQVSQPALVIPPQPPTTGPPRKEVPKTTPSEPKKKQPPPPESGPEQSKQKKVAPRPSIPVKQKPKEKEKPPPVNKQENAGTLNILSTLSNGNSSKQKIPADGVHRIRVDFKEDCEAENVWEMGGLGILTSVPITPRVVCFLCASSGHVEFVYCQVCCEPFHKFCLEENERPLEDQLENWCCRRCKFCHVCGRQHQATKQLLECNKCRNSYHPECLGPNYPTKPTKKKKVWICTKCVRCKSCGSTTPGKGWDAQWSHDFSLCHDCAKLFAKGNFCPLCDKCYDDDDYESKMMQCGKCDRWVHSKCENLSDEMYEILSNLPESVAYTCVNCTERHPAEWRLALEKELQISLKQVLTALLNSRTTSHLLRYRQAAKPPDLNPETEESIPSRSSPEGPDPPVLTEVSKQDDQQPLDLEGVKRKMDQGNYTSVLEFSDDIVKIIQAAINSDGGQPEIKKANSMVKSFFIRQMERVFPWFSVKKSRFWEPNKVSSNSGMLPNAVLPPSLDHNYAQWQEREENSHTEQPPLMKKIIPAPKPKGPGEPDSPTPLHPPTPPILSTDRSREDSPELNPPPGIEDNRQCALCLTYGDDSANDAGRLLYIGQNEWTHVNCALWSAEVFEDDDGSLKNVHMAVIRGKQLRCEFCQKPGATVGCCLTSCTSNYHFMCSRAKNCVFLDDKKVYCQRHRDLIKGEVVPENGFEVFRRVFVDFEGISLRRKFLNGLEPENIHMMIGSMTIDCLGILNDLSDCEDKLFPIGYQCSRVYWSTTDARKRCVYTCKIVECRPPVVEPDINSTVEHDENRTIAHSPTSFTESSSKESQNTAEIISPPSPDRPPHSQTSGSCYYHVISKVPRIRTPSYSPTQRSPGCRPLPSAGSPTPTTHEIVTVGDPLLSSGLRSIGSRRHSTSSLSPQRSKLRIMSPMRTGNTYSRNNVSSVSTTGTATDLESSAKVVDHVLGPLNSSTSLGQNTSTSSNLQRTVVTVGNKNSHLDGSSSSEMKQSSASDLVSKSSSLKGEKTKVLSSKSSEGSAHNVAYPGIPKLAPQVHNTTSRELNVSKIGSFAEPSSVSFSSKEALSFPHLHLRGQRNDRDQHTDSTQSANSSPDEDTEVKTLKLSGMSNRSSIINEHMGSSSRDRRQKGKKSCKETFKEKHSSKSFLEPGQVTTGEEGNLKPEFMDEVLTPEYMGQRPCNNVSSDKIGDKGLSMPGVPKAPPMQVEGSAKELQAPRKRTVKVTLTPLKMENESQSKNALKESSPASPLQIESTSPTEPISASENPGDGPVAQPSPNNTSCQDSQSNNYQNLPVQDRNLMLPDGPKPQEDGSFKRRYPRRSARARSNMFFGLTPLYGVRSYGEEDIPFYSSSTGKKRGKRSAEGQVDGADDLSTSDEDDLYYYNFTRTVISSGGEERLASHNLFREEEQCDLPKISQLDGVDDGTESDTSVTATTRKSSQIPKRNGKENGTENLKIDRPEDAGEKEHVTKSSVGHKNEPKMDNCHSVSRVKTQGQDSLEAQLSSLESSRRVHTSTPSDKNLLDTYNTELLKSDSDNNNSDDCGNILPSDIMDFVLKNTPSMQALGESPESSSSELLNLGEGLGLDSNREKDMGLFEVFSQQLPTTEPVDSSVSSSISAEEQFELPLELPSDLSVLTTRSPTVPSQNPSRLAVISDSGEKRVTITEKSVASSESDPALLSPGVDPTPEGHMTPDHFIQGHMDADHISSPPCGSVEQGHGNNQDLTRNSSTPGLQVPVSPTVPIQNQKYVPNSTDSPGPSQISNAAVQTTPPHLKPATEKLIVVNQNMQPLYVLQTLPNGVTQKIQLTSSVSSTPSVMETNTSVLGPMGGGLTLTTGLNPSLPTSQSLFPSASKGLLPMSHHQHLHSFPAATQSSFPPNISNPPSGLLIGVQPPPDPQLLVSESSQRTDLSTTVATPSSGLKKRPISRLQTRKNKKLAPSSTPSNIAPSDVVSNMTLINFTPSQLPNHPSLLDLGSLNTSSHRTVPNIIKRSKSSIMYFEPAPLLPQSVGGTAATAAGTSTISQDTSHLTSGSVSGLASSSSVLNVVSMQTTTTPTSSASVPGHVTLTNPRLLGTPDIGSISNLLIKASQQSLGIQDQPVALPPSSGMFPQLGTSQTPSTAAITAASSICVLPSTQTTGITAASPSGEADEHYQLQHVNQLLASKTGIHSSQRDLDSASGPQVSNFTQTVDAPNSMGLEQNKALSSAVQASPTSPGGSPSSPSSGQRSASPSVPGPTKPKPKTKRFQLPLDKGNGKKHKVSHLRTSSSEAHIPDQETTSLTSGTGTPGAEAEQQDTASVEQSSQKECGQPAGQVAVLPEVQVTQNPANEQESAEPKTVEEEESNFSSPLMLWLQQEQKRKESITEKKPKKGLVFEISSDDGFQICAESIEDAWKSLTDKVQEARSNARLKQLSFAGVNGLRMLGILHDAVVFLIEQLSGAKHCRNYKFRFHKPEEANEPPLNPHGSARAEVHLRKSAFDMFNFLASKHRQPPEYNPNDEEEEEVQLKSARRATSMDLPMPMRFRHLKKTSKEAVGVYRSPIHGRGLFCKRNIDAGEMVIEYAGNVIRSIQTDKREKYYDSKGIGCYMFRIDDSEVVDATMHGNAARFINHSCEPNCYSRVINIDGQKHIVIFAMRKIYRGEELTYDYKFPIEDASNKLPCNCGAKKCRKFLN

Biological target: Histone-lysine N-methyltransferase 2A (Homo sapiens) (UniProt Q03164)
Test: qHTS Fluorescence Polarization Assay for Inhibitors of MLL CXXC domain - DNA interaction
Details: MLL-CXXC / FITC-HOXA9 DNA fluorescence polarization; series mostly up to 115 µM
Summary of the method: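 Steps: dispense CXXC domain solution (7 uM) → pin compounds or unlabeled HOX-A9 DNA control → 5 min ambient → add FLSN-HOX-A9 solution (50 nM) → spin → 30 min ambient → fluorescence polarization. Tris pH 7.5/NaCl/DTT/BSA buffer.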
Potency is the fitted concentration of half-maximal effect.

`COC(=O)c1ccc(CNC(=O)COC(=O)C2CC3C=CC2C3)cc1` (stereo unspecified) was tested. Which Potency did it give?
Its Potency is inconclusive: 35.5 µM [fluorescent, side channel, single point].

For `CC(=O)N[C@@H]1C(O[C@H]2O[C@H](C(=O)O)C(O)[C@H](O)[C@H]2O)[C@H](O)[C@@H](CO)O[C@H]1O[C@@H]1C(C(=O)O)O[C@@H](O[C@H]2[C@H](O)[C@@H](CO)OC(O)[C@@H]2NC(C)=O)[C@H](O)[C@H]1O` (stereo partly specified), which Potency is on record?
The Potency was “inactive”.

With `O=C(O)CCCNC(=O)c1cncc(O)c1` as the compound, how does the Potency read?
The Potency was “inactive”.

For `O=C(c1ccccc1)c1nn(-c2cccc(Cl)c2)c2nc(-c3ccccc3)cc(=O)n12`, which Potency is on record?
The Potency was inconclusive: 63.1 µM [fluorescent, side channel, single point].

`O=C(C1=C(O)C(=O)N(CC2CCCO2)C1c1ccccc1F)c1ccco1` (stereo unspecified) was tested. Which Potency did it give?
The Potency was inconclusive: 89.1 µM [fluorescent, side channel, single point].

Which Potency does the source give for `O=C(Nc1cccc(-n2cccn2)c1)C1CCCN(Cc2cc3ccccc3[nH]2)C1` (stereo unspecified) here?
The Potency was inconclusive: 39.8 µM [quencher, side channel, partial curve].

How did the Potency turn out when `Cc1c(-c2ccc(Br)cc2)[n+](=O)c2c(n1[O-])CCCC2` was run?
Its Potency is inconclusive: 15.8 µM [inhibitor, single point].

How did the Potency turn out when `CC(C)n1ncc2c(C(=O)O)cc(C3CC3)nc21` was run?
The Potency was inconclusive: 70.8 µM [inhibitor, single point].

Which Potency does the source give for `CCCC(=O)OC/C(O)=C(\C#N)c1nc2ccccc2[nH]1` here?
Its Potency is inconclusive: 20 µM [fluorescent, side channel, partial curve].

How did the Potency turn out when `O=C(C1CCN(S(=O)(=O)c2ccccc2)CC1)N1CCc2ccccc21` was run?
The Potency was inconclusive: 31.6 µM [fluorescent, side channel, partial curve].

For `CC(C)N=c1scc(-c2cccs2)n1/N=C/c1ccc(O)c(O)c1O`, which Potency is on record?
Its Potency is inconclusive: 3.55 µM [quencher, side channel, full curve].

How did the Potency turn out when `COc1ccc(N2CCN(c3ncnc4scc(-c5ccccc5)c34)CC2)cc1` was run?
Its Potency is “inactive”.

With `COc1cccc(CN2C(=O)c3cccc(N)c3C2=O)c1` as the compound, how does the Potency read?
Its Potency is inconclusive: 35.5 µM [inhibitor, single point].

How did the Potency turn out when `O=C(NCCCN1CCCC1=O)Nc1ccc(Cl)cc1Cl` was run?
The Potency was inconclusive: 39.8 µM [fluorescent, side channel, partial curve].

How did the Potency turn out when `Cc1sc(-c2ccccn2)nc1OC(=O)c1ccc(Cl)c(Cl)c1` was run?
The Potency was inconclusive: 31.6 µM [fluorescent, side channel, partial curve].

How did the Potency turn out when `CN1CCN(CC(=O)Nc2nc(-c3c[nH]c4ccccc34)cs2)CC1` was run?
Its Potency is inconclusive: 31.6 µM [quencher, side channel, partial curve].
